PubChem BioAssay AID1671190 (National Center for Advancing Translational Sciences (NCATS), 2021)
Several values for one entry are separate records, joined by “and”; a condition that tells them apart may be missing. Identical values can stand only once. The whole screen tested about 580,000 compounds, of which about 6,100 (1.1%) were called active. The shares of active, inactive and inconclusive entries below differ from those in the screen. Calls come from the whole dose curve; as a rule, active = well fitted inhibition curve with a large enough effect; inconclusive = small, poorly fitted or top-dose-only effect, or another doubt; inactive = no such curve, though single readings can be large or run the other way. Potencies of inconclusive entries are doubtful fits and often do not repeat.

Sequences of proteins named here, by UniProt entry; tags and fusion partners are left off.
UniProt P18054, whole entry, looked up: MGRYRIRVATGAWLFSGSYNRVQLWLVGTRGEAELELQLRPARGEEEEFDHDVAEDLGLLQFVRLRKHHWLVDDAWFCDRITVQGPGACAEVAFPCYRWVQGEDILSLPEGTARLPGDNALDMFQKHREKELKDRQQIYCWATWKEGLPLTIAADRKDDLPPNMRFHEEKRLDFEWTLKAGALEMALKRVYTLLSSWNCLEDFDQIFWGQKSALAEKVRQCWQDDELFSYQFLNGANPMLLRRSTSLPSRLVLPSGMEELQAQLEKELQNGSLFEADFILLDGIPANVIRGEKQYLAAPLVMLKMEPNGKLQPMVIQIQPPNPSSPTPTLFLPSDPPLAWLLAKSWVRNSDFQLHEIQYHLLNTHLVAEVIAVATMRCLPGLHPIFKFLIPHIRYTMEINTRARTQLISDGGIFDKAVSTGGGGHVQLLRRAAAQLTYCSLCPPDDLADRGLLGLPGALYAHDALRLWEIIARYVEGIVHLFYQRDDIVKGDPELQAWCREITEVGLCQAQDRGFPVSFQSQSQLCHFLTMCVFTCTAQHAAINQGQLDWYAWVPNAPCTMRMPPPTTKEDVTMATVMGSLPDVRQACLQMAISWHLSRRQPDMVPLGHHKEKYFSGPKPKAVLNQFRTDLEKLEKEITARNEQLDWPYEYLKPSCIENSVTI

What follows are molecules tested against Polyunsaturated fatty acid lipoxygenase ALOX12 (Homo sapiens) (UniProt P18054) (assay: Primary qHTS assay for inhibitors of human arachidonate 12S-lipoxygenase (ALOX12): Round 2). Settings: purified 12hLO, xylenol orange hydroperoxide absorbance; series mostly up to 108 µM.
Outline: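 Purified human 12hLO at 150 nM in 25 mM Hepes, 0.01% Triton X-100, pH 7.0, preincubated 15 min at room temperature with compound. Reaction started with 40 uM arachidonic acid, 30 min at room temperature. Hydroperoxide measured by Fe-xylenol orange, 573/405 nm absorbance ratio.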
Potency is the fitted concentration of half-maximal effect.

Structure (SMILES)	Potency
CC(C)C(=O)Nc1nc2ccc(S(C)(=O)=O)cc2s1	inactive
CNc1cccnc1C=NNC(N)=S	inactive
CCOC(=O)N1CCc2c(sc(NCc3ccc(N(CC)CC)cc3)c2C(=O)Nc2cc(OC)ccc2OC)C1	inconclusive: 7.94 µM [inhibitor, full curve, poor fit]
COc1cc(/C=C/C(=O)O)cc(S(=O)(=O)Nc2ccc(F)cc2)c1OC	inactive
Cc1ccc(-n2c(C3CCN(C(=O)c4ccc(F)c(F)c4)CC3)n[nH]c2=O)cc1	inconclusive: 28.2 µM [inhibitor, partial curve, poor fit]
COc1ccccc1/C=C/C=N/n1c(-c2n[nH]c3c2CCC3)n[nH]c1=S	inconclusive: 3.55 µM [inhibitor, full curve, poor fit]
N#CCCCN1C(=O)C(=C(C#N)C#N)c2ccccc21	inconclusive: 44.7 µM [inhibitor, partial curve, poor fit]
Nc1nnc(-c2cccc(Cl)c2Cl)c(N)n1	inconclusive: 79.4 µM [inhibitor, single point] and inconclusive: 35.5 µM [inhibitor, partial curve, poor fit]
CCOc1cc(/C=C/C(=O)c2ccc(Cl)c(Cl)c2)ccc1O	active: 6.31 µM
Cc1ccc(-c2cc(C(=O)N3CCN(c4ccccc4O)CC3)c3ccccc3n2)cc1	inconclusive: 126 µM [inhibitor, single point]
CCOC(=O)CSc1nc2ccccc2c(=O)n1CC1CCC(C(=O)NCc2ccco2)CC1 (centres undefined)	inconclusive: 56.2 µM [inhibitor, partial curve, poor fit]
Cc1ccc(S(=O)(=O)N2CCC(=O)N(C(COCc3ccc(Cl)cc3)C(C)C)CC2)cc1 (centres undefined)	inconclusive: 44.7 µM [inhibitor, partial curve, poor fit]
CCCn1nc(C(=O)OCC(=O)NCc2ccc(F)cc2)c2ccccc2c1=O	inconclusive: 28.2 µM [inhibitor, partial curve, poor fit]
CC(C)CCOP(=O)(c1ccc(N(C)C)cc1)C(O)c1ccc(Cl)cc1Cl (centres undefined)	inconclusive: 39.8 µM [inhibitor, partial curve, poor fit]
CN(C)CCNC(C(=O)Nc1cc(Cl)cc(Cl)c1)c1ccccc1 (centres undefined)	inactive
O=C(Nc1nc2n(n1)C(c1ccc(F)cc1)C=C(c1ccc(Cl)cc1)N2)c1ccc([N+](=O)[O-])cc1 (centres undefined)	inconclusive: 141 µM [inhibitor, single point]
Cc1ccnc(NC(=O)Cc2ccccc2Cl)c1	inactive
CCN1CCN(c2nc3nnnn3c3sc4c(c23)CCN(Cc2ccccc2)C4)CC1	inconclusive: 39.8 µM [inhibitor, single point]
O=C(NCCC1=CCCCC1)c1nnn2cc(-c3ccccc3)[nH]c(=O)c12	inconclusive: 39.8 µM [inhibitor, single point]
Cc1[nH]c(=O)[nH]c(=O)c1CCC(=O)Nc1nccs1	inconclusive: 3.55 µM [inhibitor, full curve]

Structure (SMILES)	Potency
N#Cc1ccccc1S(=O)(=O)N1CCN(C(=O)CCc2ccccc2)CC1	inconclusive: 100 µM [inhibitor, single point]
CN(CC(=O)Nc1cccc(F)c1)C(=O)Cc1n[nH]c(=O)c2ccccc12	inconclusive: 70.8 µM [inhibitor, partial curve, poor fit]
CC(C)(CCC(=S)N1CCOCC1)C1CCCCC1	inconclusive: 39.8 µM [inhibitor, partial curve, poor fit]
Clc1ccccc1C1(c2ccnc(-c3ccccc3)n2)CCNCC1	inconclusive: 44.7 µM [inhibitor, partial curve, poor fit]
CC(=O)Nc1c(C(=O)O)oc2ccc(Cl)cc12	inconclusive: 79.4 µM [inhibitor, single point]
O=C(CN1CCN(c2ccc(O)cc2)CC1)Nc1ccc(S(=O)(=O)N2CCCC2)cc1	inconclusive: 15.8 µM [inhibitor, partial curve, poor fit]
OCC1CCN(Cc2cn(Cc3ccccc3)nc2-c2cc3ccccc3o2)CC1	inconclusive: 2 µM [inhibitor, full curve, poor fit]
COc1ccc(/[N+]([O-])=C/c2ccco2)cc1	inconclusive: 15.8 µM [inhibitor, full curve, poor fit]
C[C@@H](CSc1ccccc1)CN1CC[C@H](C(C)(C)C)CCC1=O	inactive
COc1ccc(NC(=S)N2CCC(C(O)(c3ccccc3)c3ccccc3)CC2)cc1	inconclusive: 35.5 µM [inhibitor, partial curve]
Cc1ccc(-n2ncc3c(NCc4ccco4)ncnc32)c(C)c1	inconclusive: 79.4 µM [inhibitor, single point]
COc1ccccc1CC(=O)Nc1ccc2nc(Nc3cccc(C(F)(F)F)c3)cc(C)c2c1	inactive
NC(=O)C1CN(CC(=O)Nc2ccccc2Sc2ccccc2)c2ccccc2O1 (centres undefined)	inconclusive: 44.7 µM [inhibitor, partial curve, poor fit]
COc1ccc(N2CCN(C(=O)COC(=O)c3ccco3)CC2)cc1	inconclusive: 79.4 µM [inhibitor, partial curve, poor fit]
Cc1cc(C(=O)NC2CCCc3ccccc32)c(C)o1 (centres undefined)	inconclusive: 63.1 µM [inhibitor, partial curve, poor fit]
O=S(=O)(c1ccccc1)N1CCN(Cc2ccccc2C(F)(F)F)CC1	inconclusive: 0.1 µM [inhibitor, full curve, poor fit]
Cc1cc(C)n(-c2nc3c(c(=O)n(CCN4CCOCC4)c(=O)n3C)n2CCC(C)C)n1	inconclusive: 22.4 µM [inhibitor, partial curve, poor fit]
CC(NC(=O)CSc1nnc2n1CCCCC2)c1ccc2c(c1)CCCC2 (centres undefined)	inactive
Cc1c(NC(=S)NC(=O)c2ccc(Cl)cc2)c(=O)n(-c2ccccc2)n1C	inconclusive: 5.01 µM [inhibitor, full curve, poor fit]
